{"source": "PubChem BioAssay AID624291", "about": "(National Center for Advancing Translational Sciences (NCATS), 2012)", "note": "Hit rate of the full screen: of about 350,000 compounds, about 220 (0.063%) were called active. Inconclusive results, whose numbers are uncertain, are shown with a selection of clear calls. Calls follow the shape of the dose curve; as a rule, active = well fitted activation curve with a large enough effect; inconclusive = small, poorly fitted or top-dose-only effect; inactive = no such curve, though single readings can be large or run the other way. A potency beside an inconclusive call is a rough fit, not a confirmed value. Potency is read from the fitted curve at half-maximal effect."}
{"test": "qHTS for Activators of Integrin-Mediated Alleviation for Muscular Dystrophy; also: nearly all actives have a fitted effect of over 60% in size", "details": "alpha7betagal myoblasts, beta-gal FDG fluorescence, 48 h; series mostly up to 38.3 µM", "in_short": "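alpha7betagal+/- myoblasts (passage 13, 250/well) treated 48 h at 37C with compounds at 1:260 dilution of DMSO stock. Lysed, then beta-galactosidase activity read as FDG fluorescence (ex 480/em 540) after 30 min, with pre-read for autofluorescence.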"}
{"smiles": "Cc1ccc(S(=O)(=O)CCC(=O)NCCc2ccc(Cl)cc2)cc1", "Potency": "inconclusive: 5.01 µM [activator, single point]"}
{"smiles": "CC(C)C(=O)NC(Nc1cccc2cccnc12)C(Cl)(Cl)Cl", "note": "(stereo not given)", "Potency": "inactive"}
{"smiles": "COc1cc(C(=O)N/N=C/c2cn(Cc3ccccc3)c3ccccc23)ccc1O", "Potency": "inactive"}
{"smiles": "Cc1cccc(C)c1NC(=O)CS(=O)CC(=O)NCC1OCCc2ccccc21", "note": "(stereo not given)", "Potency": "inconclusive: 5.01 µM [activator, single point]"}
{"smiles": "O=[N+]([O-])c1ccc(S(=O)(=O)Nc2nc(-c3ccccc3)cs2)cc1", "Potency": "inconclusive: 12.6 µM [activator, single point]"}
{"smiles": "Cc1ccc(C(=O)Nc2nn(C)c3cccc(F)c23)cc1", "Potency": "inconclusive: 22.4 µM [activator, single point]"}
{"smiles": "Cc1ccc(Sc2ncnc3onc(C)c23)cc1", "Potency": "inactive"}
{"smiles": "CCCCC(C(=O)NC(C)(C)C)N(Cc1ccccc1)C(=O)c1snc(C(N)=O)c1N", "note": "(stereo not given)", "Potency": "inconclusive: 2.82 µM [activator, partial curve, poor fit]"}
{"smiles": "Cn1c(NCC(O)c2ccccc2)nc2c1c(=O)n(Cc1ccc(Cl)cc1)c(=O)n2C", "note": "(stereo not given)", "Potency": "inconclusive: 10 µM [activator, single point]"}
{"smiles": "COc1ccccc1CNC(=S)Nc1ccc(S(N)(=O)=O)cc1", "Potency": "inconclusive: 5.01 µM [activator, single point]"}
{"smiles": "COc1ccccc1NC(=O)c1cc2cc(Br)ccc2oc1=N", "Potency": "inconclusive: 3.98 µM [activator, single point]"}
{"smiles": "Cc1occc1C(=O)Nc1cccnc1", "Potency": "inactive"}
{"smiles": "CC(OC(=O)C1=Cc2ccccc2OC1)C(=O)NCC1CCCO1", "note": "(stereo not given)", "Potency": "inconclusive: 1 µM [activator, partial curve, poor fit]"}
{"smiles": "Cc1cc(C(=O)NC2CCCc3c2cnn3-c2ccc(C)c(C)c2)no1", "note": "(stereo not given)", "Potency": "inactive"}
{"smiles": "Cc1ccc(C)c(S(=O)(=O)N2CCN(C(=O)CSc3ccccc3F)CC2)c1", "Potency": "inconclusive: 7.08 µM [activator, partial curve, poor fit]"}
{"smiles": "COc1ccc(S(=O)(=O)Cc2ccc(C(=O)NCc3ccccc3)o2)cc1", "Potency": "inconclusive: 5.01 µM [activator, single point]"}
{"smiles": "COc1ccccc1OCC(=O)Nc1ccc(S(=O)(=O)N(C)c2ccccc2)cc1", "Potency": "inconclusive: 10 µM [activator, partial curve, poor fit]"}
{"smiles": "CCOc1ccc(-c2nc(C)c(C(C)=O)n2O)cc1", "Potency": "inactive"}
{"smiles": "CN(C)c1ncnc2sc(-c3ccccc3)cc12", "Potency": "inconclusive: 28.2 µM [activator, single point]"}
{"smiles": "COc1cc(/C=C/C(=O)c2c(O)ccc3c(C)cc(=O)oc23)ccc1O", "Potency": "inactive"}
{"smiles": "C/C(=N\\NC(=O)c1cccs1)c1cccnc1", "Potency": "inactive"}
{"smiles": "NNC(=S)Nc1ccc(Cl)cc1", "Potency": "inactive"}
{"smiles": "Cc1ccc(C(C)NC(=S)NCc2ccc(F)cc2)cc1C", "note": "(stereo not given)", "Potency": "inactive"}
{"smiles": "CC1Cc2cc(-c3csc(NC(=O)Cc4cccs4)n3)ccc2N1S(C)(=O)=O", "note": "(stereo not given)", "Potency": "inactive"}
{"smiles": "O=S1(=O)N=C(N(Cc2cccs2)c2ccc(O)cc2)c2ccccc21", "Potency": "inconclusive: 14.1 µM [activator, single point]"}
{"smiles": "CCN(C(=O)CSc1ncccc1C(=O)O)C1CCCCC1", "Potency": "inconclusive: 28.2 µM [activator, single point]"}
{"smiles": "O=C(Nc1ccc(Cl)cc1)NC1CCCCNC1=O", "note": "(stereo not given)", "Potency": "inconclusive: 2 µM [activator, single point]"}
{"smiles": "CCOC(=O)c1oc2nc3c(cc2c1N)COC(C)(C)C3", "Potency": "inconclusive: 14.1 µM [activator, single point]"}
{"smiles": "COC(=O)CSc1nc(SCc2ccccc2Cl)nc2c1CCCC2", "Potency": "inactive"}
{"smiles": "CNc1snc(C)c1C(=O)OC(C)C(=O)Nc1ccc(F)cc1", "note": "(stereo not given)", "Potency": "inconclusive: 2.24 µM [activator, partial curve, poor fit]"}
{"smiles": "COc1cc(CCC(=O)NNC(=O)c2ccc(C)cc2)cc(OC)c1OC", "Potency": "inconclusive: 5.01 µM [activator, single point]"}
{"smiles": "CC(C)n1cc(C(=O)N2CCCC(Nc3ccc(F)c(F)c3)C2)cn1", "note": "(stereo not given)", "Potency": "inconclusive: 6.31 µM [activator, single point]"}
{"smiles": "O=C(N/N=C/c1ccc(O)c(O)c1O)/C(=C/c1ccc([N+](=O)[O-])cc1)NC(=O)c1ccccc1", "Potency": "inactive"}
{"smiles": "Cc1cc(C)c2c(c1)/C(=N\\N=c1\\sc3ccccc3n1C)C(=O)N2", "Potency": "inconclusive: 5.01 µM [activator, single point]"}
{"smiles": "Cc1ccsc1C(=O)N1CCN(c2ccccn2)CC1", "Potency": "inconclusive: 28.2 µM [activator, single point]"}
{"smiles": "Cc1occc1C(=O)N=Nc1c(O)n(C)c2ccccc12", "Potency": "inconclusive: 8.91 µM [activator, partial curve, poor fit]"}
{"smiles": "CC(C)(C)C(=O)Nc1c2c(nn1-c1ccccc1)CSC2", "Potency": "inconclusive: 5.01 µM [activator, single point]"}
{"smiles": "COc1ccc(S(=O)(=O)N2CCN(Cc3cccc(OC)c3OC)CC2)cc1", "Potency": "inconclusive: 14.1 µM [activator, single point]"}
{"smiles": "O=C(Nc1ccccc1)Oc1ccc[nH]c1=O", "Potency": "inconclusive: 10 µM [activator, partial curve, poor fit]"}
{"smiles": "O=C(Nc1cccc(NC(=O)c2ccc([N+](=O)[O-])o2)c1)c1ccco1", "Potency": "inactive"}
{"smiles": "COc1ccc(NC(=O)Nc2ccc(Br)c(C)c2)cc1", "Potency": "inconclusive: 5.01 µM [activator, single point]"}
{"smiles": "COC(=O)c1c(-c2ccc(OC)cc2)oc2ccc(-c3ccc(OC)nc3)cc12", "Potency": "inactive"}
{"smiles": "COc1ccccc1NC(=O)c1oc2ccccc2c1C", "Potency": "inactive"}
{"smiles": "O=C(CSc1nc(-c2ccccc2)c(-c2ccccc2)[nH]1)N1CCN(S(=O)(=O)c2ccccc2)CC1", "Potency": "inactive"}
{"smiles": "NC(=S)N/N=C/c1coc2cc(Cl)ccc2c1=O", "Potency": "inconclusive: 22.4 µM [activator, single point]"}
{"smiles": "COc1cccc(CN2CCN(C(=O)C3CCC(=O)N(C4CCCC4)C3)CC2)c1", "note": "(stereo not given)", "Potency": "inconclusive: 31.6 µM [activator, partial curve, poor fit]"}
{"smiles": "O=S(=O)(c1ccc(Br)s1)N1CCNCC1", "Potency": "inconclusive: 28.2 µM [activator, single point]"}
{"smiles": "CCOC(=O)c1sc(NC(=O)C2CC(=O)N(c3ccc4c(c3)OCCO4)C2)nc1C", "note": "(stereo not given)", "Potency": "inconclusive: 5.01 µM [activator, single point]"}
{"smiles": "CCOc1ccc(S(=O)(=O)NC2CCCC2)cc1C", "Potency": "inconclusive: 1.78 µM [activator, partial curve, poor fit]"}
{"smiles": "COCCCNC(=S)N/N=C/c1ccc(O)cc1", "Potency": "inconclusive: 3.55 µM [activator, single point]"}
{"smiles": "COc1ccc(Cl)cc1NC(=O)C/C(C)=N/NC(=O)c1ccccc1Cl", "Potency": "inconclusive: 5.01 µM [activator, single point]"}
{"smiles": "CCCCCC(=O)Nc1cccc(S(=O)(=O)NC2=NCCC2)c1", "Potency": "inactive"}
{"smiles": "CC(C)CCNC(=O)NC(=O)COc1ccccc1C#N", "Potency": "inconclusive: 12.6 µM [activator, partial curve, poor fit]"}
{"smiles": "CN(C(=O)c1cc([N+](=O)[O-])ccc1N1CCCC1)C1CCCCC1", "Potency": "inconclusive: 2.51 µM [activator, single point]"}
{"smiles": "CCn1c(Cc2ccccc2)nnc1SCC(=O)c1c(N)n(C2CC2)c(=O)[nH]c1=O", "Potency": "inconclusive: 4.47 µM [activator, single point]"}
{"smiles": "COc1ccc2nc(NC(=O)C3CCCN(S(=O)(=O)c4cccc5nonc45)C3)sc2c1", "note": "(stereo not given)", "Potency": "inactive"}
{"smiles": "CC1CCc2nc(NC(=O)Cc3cccs3)sc2C1", "note": "(stereo not given)", "Potency": "inactive"}
{"smiles": "COc1ccc(CNC(=O)CN2CCN(c3ccccc3)CC2)cc1", "Potency": "inconclusive: 0.398 µM [activator, full curve, poor fit]"}
{"smiles": "CC1CCCCC1NC(=O)CSc1nnc(COc2ccc(Cl)cc2)o1", "note": "(stereo not given)", "Potency": "inconclusive: 8.91 µM [activator, partial curve, poor fit]"}
{"smiles": "O=c1[nH]c2cc3c(cc2cc1C(c1nnnn1C1CCCC1)N1CCCc2ccccc21)OCCO3", "note": "(stereo not given)", "Potency": "inconclusive: 3.98 µM [activator, partial curve, poor fit]"}
{"smiles": "COc1ccccc1-n1c(SCC(=O)Nc2cc(C)on2)nc2c(c1=O)SCC2", "Potency": "inconclusive: 3.16 µM [activator, partial curve, poor fit]"}
{"smiles": "CCCCNC(=O)COC(=O)c1ccc(NC(C)=O)cc1", "Potency": "inconclusive: 10 µM [activator, partial curve, poor fit]"}
{"smiles": "NS(=O)(=O)c1cccc(NS(=O)(=O)c2ccc(/C=C/C(=O)OCC(=O)c3ccccc3)cc2)c1", "Potency": "inactive"}
{"smiles": "O=C(Nc1ccccc1N1CCOCC1)c1ccc2c(c1)OCO2", "Potency": "inconclusive: 12.6 µM [activator, single point]"}
{"smiles": "Cc1cccc(C)c1NC(=S)N(CCN(C)C)C(C)c1cccnc1", "note": "(stereo not given)", "Potency": "inconclusive: 3.16 µM [activator, single point]"}
{"smiles": "O=C(CCNc1n[nH]c(=O)[nH]c1=O)N/N=C/c1ccccc1Br", "Potency": "inactive"}
{"smiles": "CCCCc1nnc(NC(=O)CSc2nc(=O)cc(N)n2-c2cccc(C)c2)s1", "Potency": "inconclusive: 12.6 µM [activator, partial curve, poor fit]"}
{"smiles": "Cc1ccc(NS(=O)(=O)c2cccc(C(=O)NCC(c3cccs3)N3CCOCC3)c2)cc1", "note": "(stereo not given)", "Potency": "inconclusive: 3.16 µM [activator, single point]"}
{"smiles": "CC(=O)c1ccc(NC(=O)CSc2nc(C3CC3)nc3ccccc23)cc1", "Potency": "inactive"}
{"smiles": "COc1ccc(CCNC(=O)CCCNC(=O)Cn2cnc3sc(C)c(C)c3c2=O)cc1OC", "Potency": "inconclusive: 20 µM [activator, single point]"}
